The assay concerns the target T1, Insulin-degrading enzyme (IDE) (UniProt P14735).
T1 sequence (looked up): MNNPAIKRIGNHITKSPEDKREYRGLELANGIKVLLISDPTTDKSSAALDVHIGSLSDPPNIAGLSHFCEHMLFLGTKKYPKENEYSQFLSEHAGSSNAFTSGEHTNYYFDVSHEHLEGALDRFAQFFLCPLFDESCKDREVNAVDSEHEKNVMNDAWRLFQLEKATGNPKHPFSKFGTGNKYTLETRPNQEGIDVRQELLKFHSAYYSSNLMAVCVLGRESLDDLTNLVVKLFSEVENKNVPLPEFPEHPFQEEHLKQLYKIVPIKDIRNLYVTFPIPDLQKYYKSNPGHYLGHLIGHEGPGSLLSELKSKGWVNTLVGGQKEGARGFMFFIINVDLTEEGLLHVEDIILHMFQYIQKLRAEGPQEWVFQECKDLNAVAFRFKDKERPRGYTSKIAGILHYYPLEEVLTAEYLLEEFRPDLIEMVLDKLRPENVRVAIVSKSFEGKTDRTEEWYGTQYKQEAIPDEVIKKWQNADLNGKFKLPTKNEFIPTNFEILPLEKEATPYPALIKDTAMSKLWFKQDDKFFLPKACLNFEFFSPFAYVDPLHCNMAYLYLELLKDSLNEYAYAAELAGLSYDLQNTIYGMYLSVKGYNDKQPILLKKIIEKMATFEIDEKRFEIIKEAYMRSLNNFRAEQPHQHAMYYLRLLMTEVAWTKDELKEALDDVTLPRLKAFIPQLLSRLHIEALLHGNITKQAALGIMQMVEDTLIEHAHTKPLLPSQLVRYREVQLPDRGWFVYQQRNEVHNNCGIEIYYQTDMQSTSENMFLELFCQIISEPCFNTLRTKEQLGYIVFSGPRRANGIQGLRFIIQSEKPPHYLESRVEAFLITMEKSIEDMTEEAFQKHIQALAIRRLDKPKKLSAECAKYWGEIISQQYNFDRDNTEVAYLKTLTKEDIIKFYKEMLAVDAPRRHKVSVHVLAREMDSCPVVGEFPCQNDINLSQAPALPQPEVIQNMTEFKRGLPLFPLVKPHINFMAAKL
Briefly: Differential Shift Assay (thermal shift).

This note sets out measurements from patent US20170319645A1.

These are yes or no findings as the source states them, for the method shown. Some entries that bind do so weakly or less than the wild type.

With MVRGKPGSANKPSDD [PIF mutant 3 (mut3, I4->G4)], the binding entry is “binds”.
With MVRIKEGSANKPSDD [PIF mutant 1 (mut1, P6->E6)], the binding result is “binds”.
